Drawing on PubChem BioAssay AID1671190 (National Center for Advancing Translational Sciences (NCATS), 2021), this text covers Potency and activity change, negative = inhibition for 59 compounds.

The chains behind the UniProt entries cited, without tags or fusion partners. Where a name states a change or a piece, a line headed by the entry shows the natural chain unless it says otherwise.
UniProt P18054: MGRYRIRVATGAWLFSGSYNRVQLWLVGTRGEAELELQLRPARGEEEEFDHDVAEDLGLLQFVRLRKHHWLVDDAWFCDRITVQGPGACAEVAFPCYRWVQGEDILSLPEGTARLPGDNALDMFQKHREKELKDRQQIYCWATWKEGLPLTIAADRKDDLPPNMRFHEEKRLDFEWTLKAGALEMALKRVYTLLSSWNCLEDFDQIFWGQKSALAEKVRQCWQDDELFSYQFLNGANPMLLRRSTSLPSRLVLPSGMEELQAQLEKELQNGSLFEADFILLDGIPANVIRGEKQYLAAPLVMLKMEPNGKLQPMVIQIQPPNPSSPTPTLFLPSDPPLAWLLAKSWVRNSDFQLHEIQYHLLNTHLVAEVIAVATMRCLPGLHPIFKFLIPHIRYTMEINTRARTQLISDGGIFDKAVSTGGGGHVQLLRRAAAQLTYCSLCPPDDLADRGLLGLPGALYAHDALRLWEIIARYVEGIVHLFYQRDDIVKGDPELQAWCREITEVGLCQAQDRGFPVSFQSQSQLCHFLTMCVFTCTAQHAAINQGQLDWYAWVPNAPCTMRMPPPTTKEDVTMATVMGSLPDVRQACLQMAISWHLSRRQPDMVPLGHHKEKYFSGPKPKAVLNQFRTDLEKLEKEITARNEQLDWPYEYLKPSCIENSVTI

Molecules are shown by their SMILES. About 6,100 (1.1%) of roughly 580,000 compounds were called active. Not shown: some 15% with an inconclusive outcome. The call rests on the fitted dose curve; in most records, active means well fitted inhibition curve with a large enough effect; inconclusive means small, poorly fitted or top-dose-only effect, or another doubt; inactive means no such curve, though single readings can be large or run the other way. This is a selection; strong and weak results do not stand in their true shares. The source gives no active or inactive call for entries shown without one.
On the % scale 0 is the no-effect control and ±100 the full control effect; potency means the concentration at half of the fitted maximal effect.

The experiment has as its target Polyunsaturated fatty acid lipoxygenase ALOX12 (Homo sapiens) (UniProt P18054). Kind of experiment: Primary qHTS assay for inhibitors of human arachidonate 12S-lipoxygenase (ALOX12): Round 2. The following applies: purified 12hLO, xylenol orange hydroperoxide absorbance; activity change, negative = inhibition: at 0.00344 µM (top of the series) unless noted. An outline of the steps: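 Hydroperoxide product was detected by ferrous iron/xylenol orange as the 573 to 405 nm absorbance ratio. Arachidonic acid at 40 uM (final) was turned over for 30 min at room temperature by 150 nM human 12hLO, pH 7.0 Hepes buffer, after 15 min compound preincubation.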
(In general: In qHTS, concentration-response curves come from the screen itself.)
For `C#CCOc1c(Br)cc(/C=C2/C(=O)ON=C2C)cc1OC`, the Potency is active: 5.01 µM.
For the compound `CC(=O)N/N=C/c1ccc([N+](=O)[O-])o1`, the activity change, negative = inhibition stood at 22.4%.
For the compound `CN1CCN(CCCN2c3ccccc3Sc3ccc(C(F)(F)F)cc32)CC1`, the activity change, negative = inhibition stood at 13%.
As for `CN=C(NC#N)NCCSCc1csc(N=C(N)N)n1`, the activity change, negative = inhibition was determined as 14.4%.
With `CCCC(=O)OC[C@@H](OC(=O)CCC)[C@@H](OC(=O)CCC)[C@H](Cn1c2nc(=O)[nH]c(=O)c-2nc2cc(C)c(C)cc21)OC(=O)CCC`, the activity change, negative = inhibition is -64.1%.
Take `CN(C)CCN1C(=O)c2ccccc2N(C)c2ccccc21`: the activity change, negative = inhibition was 17.1%.
With `COc1ccc(OC)c(C(O)CNC(=O)CN)c1` (centres undefined), the activity change, negative = inhibition is -31.5%.
Consider `COc1cccc(NC(=O)NC[C@H]2O[C@@H](CO)[C@@H](O)[C@H]2N2CCN(c3ccccc3OC)CC2)c1`, for which the Potency was active: 17.8 µM.
Turning to `C[C@@H]1CCN(C(=O)[C@H](CCCN=C(N)N)NS(=O)(=O)c2cccc3c2NC[C@H](C)C3)[C@@H](C(=O)O)C1`, the activity change, negative = inhibition is -17.1%.
Turning to `C[C@@H](O)[C@H]1C(=O)N2C(C(=O)O)=C(S[C@@H]3CN[C@H](CNS(N)(=O)=O)C3)[C@H](C)[C@H]12`, the activity change, negative = inhibition is -9.37%.
Regarding `CC(C)Cn1cnc2c1c(=O)n(C)c(=O)n2C`, the activity change, negative = inhibition turned out to be 31%.
For the compound `CC(C)(C#N)c1cc(Cn2cncn2)cc(C(C)(C)C#N)c1`, the activity change, negative = inhibition was determined as 7.7%.
Same read-out and setting: the figure for `CC(=O)c1ccc2c(c1)N(CCCN(C)C)c1ccccc1S2` is -7.85%; for `CN(C)CCOC(C)(c1ccccc1)c1ccccn1` (centres undefined) it is -8.54%.
For the compound `C=CCNC(N)=S`, the activity change, negative = inhibition is -2.66%.
Regarding `CCO[C@@H]1O[C@H](C(COCc2ccccc2)OCc2ccccc2)[C@H](OCc2ccccc2)[C@H]1O` (some centres undefined), the activity change, negative = inhibition is -16.7%.
For `CC(C)c1ccc2oc3nc(N)c(C(=O)O)cc3c(=O)c2c1`, the activity change, negative = inhibition is 27.3%.
On to `C[C@H]1O[C@H](O[C@H]2[C@H](O)[C@@H](O)[C@@H](O[C@H]3[C@H](O)[C@@H](O)[C@H](O)O[C@@H]3CO)O[C@@H]2CO)[C@H](O)[C@@H](O)[C@@H]1N[C@H]1C=C(CO)[C@@H](O)[C@H](O)[C@H]1O`, for which the activity change, negative = inhibition was -11.1%.
For `O=c1[nH]c2cc(C(F)(F)F)c(N3CCOCC3)cc2n(CP(=O)(O)O)c1=O`, the activity change, negative = inhibition is -17.9%.
`CC(=O)Oc1ccc2c(c1)CC[C@@H]1[C@@H]2CC[C@]2(C)[C@@H](O)CC[C@@H]12`: the activity change, negative = inhibition amounted to 49.1%.
Still for that read-out and setting: the same measure for `CCOC(=O)c1c(N)sc2c1CCN(Cc1ccccc1)C2`: -9.08%.
On to `O=C(O)c1cccnc1Nc1cccc(C(F)(F)F)c1`, for which the activity change, negative = inhibition was -7.46%.
As to `Cc1cc(C(C)(C)C)c(O)c(C)c1CC1=NCCN1`, the activity change, negative = inhibition was -25.3%.
As for `c1ccc(Nc2nc(NCC3CCCO3)c3ccccc3n2)cc1` (centres undefined), the Potency was active: 44.7 µM.
Consider `NS(=O)(=O)c1cc(C(=O)O)cc(N2CCCC2)c1Oc1ccccc1`, for which the activity change, negative = inhibition was 33.8%.
For the compound `COC(c1ccccc1)(c1ccccc1)[C@H](Oc1nc(C)cc(C)n1)C(=O)O`, the activity change, negative = inhibition is -2.05%.
As to `Cc1c(C)c2c(c(C)c1O)CCC(C)(COc1ccc(CC3SC(=O)NC3=O)cc1)O2` (centres undefined), the activity change, negative = inhibition was -21.3%.
On to `Fc1cccc(/C=N/Nc2ccc(Cl)c(Cl)c2)c1`, for which the Potency was active: 5.01 µM.
On to `CSc1ccc2c(c1)C(N1CCN(C)CC1)Cc1ccccc1S2` (centres undefined), for which the activity change, negative = inhibition is -18.9%.
The same measure, in the same setting: the same measure for `C[C@H]1COc2c(C3(N)CC3)c(F)cc3c(=O)c(C(=O)O)cn1c23`: 28.4%.
As to `O=C(O)c1ccc2c(c1)CC(=O)N2Cc1ccc(F)cc1`, the Potency was active: 11.2 µM.
Regarding `O=C(O)CC(O)C(=O)O` (centres undefined), the activity change, negative = inhibition is -21.8%.
As to `CCCCCCC[N+](CC)(CC)CCCCc1ccc(Cl)cc1`, the activity change, negative = inhibition is 0.555%.
Regarding `Clc1ccc2c(c1)Nc1ccccc1S2`, the activity change, negative = inhibition was -16.9%.
Consider `Nc1nc2ccccc2n1Cc1ccc(F)cc1`, for which the activity change, negative = inhibition stood at 13.5%.
Regarding `COc1cccc(-c2nccc3c(=O)cc(N4CCOCC4)oc23)c1`, the Potency was active: 44.7 µM.
With `Fc1ccc(-n2nnc(-c3nccs3)n2)cc1`, the Potency was active: 11.2 µM.
As for `Cc1ccc(Nc2c(F)cccc2Cl)c(CC(=O)O)c1`, the activity change, negative = inhibition worked out at 1.87%.
With `Cc1ccc(CN2C(=O)NC3(CCCN(C(=O)c4cc5ccccc5[nH]4)C3)C2=O)cc1` (centres undefined), the Potency is active: 12.6 µM.
For `COC(=O)C1=C(C)NC(C)=C(C(=O)OCC(C)=O)C1c1ccccc1[N+](=O)[O-]` (centres undefined), the activity change, negative = inhibition is 21.5%.
For `Fc1ccc(C(c2ccc(F)cc2)N2CCN(C/C=C/c3ccccc3)CC2)cc1`, the activity change, negative = inhibition came out at 25.4%.
On the same count and under the same terms, the same measure for `Cn1c(NCCN(CCO)CCCc2ccc([N+](=O)[O-])cc2)cc(=O)n(C)c1=O`: 20.7%.
Regarding `CC(C)N1C(=O)S/C(=C/c2cn(CC#N)c3ccccc23)C1=O`, the Potency was active: 4.47 µM.
Regarding `COc1cccc(-c2n[nH]c(=S)n2Cc2ccco2)c1`, the Potency is active: 17.8 µM.
As for `O=C(O)c1cccc(-n2cccc2/C=C2\NC(=O)N(Cc3ccc(F)cc3)C2=O)c1`, the Potency is active: 39.8 µM.
Consider `Cc1cccc(C(=O)O)c1O`, for which the activity change, negative = inhibition is -11.9%.
With `Cn1cc(C(=O)[C@@H]2CCc3nc[nH]c3C2)c2ccccc21`, the activity change, negative = inhibition is 23.7%.
Take `CC(=O)Oc1ccc(C)cc1`: the activity change, negative = inhibition was -28.1%.
In the case of `CCOC(=O)N1CCN(Cc2ccc(O)c3ncccc23)CC1`, the Potency is active: 25.1 µM.
For `CC1(C)CCC(C)(C)c2cc(NC(=O)c3ccc(C(=O)O)cc3)ccc21`, the activity change, negative = inhibition stood at 22.5%.
Still for that read-out and setting: the figure for `N[C@@H](Cc1cc(I)c(Oc2cc(I)c(O)c(I)c2)c(I)c1)C(=O)O` is 17.4%; for `CNCc1ccccc1` it is 0.364%; for `COc1cc(O)c(C(=O)c2ccccc2)cc1S(=O)(=O)O` it is 49.2%.
On to `O=C(CCc1ccccc1)NNC(=S)NC(=O)c1ccc(Cl)cc1`, for which the Potency is active: 12.6 µM.
For `CN1C(=O)CC(c2ccccc2)C1=O` (centres undefined), the activity change, negative = inhibition turned out to be 7.07%.
In the case of `Cc1cccc(-c2noc([C@@H]3Cc4nc[nH]c4CN3C(=O)NC3CCCCC3)n2)c1`, the Potency is active: 12.6 µM.
Regarding `CN(C)CCN(Cc1ccccc1)c1ccccn1`, the activity change, negative = inhibition was -5.68%.
Still for that read-out and setting: the figure for `C=C1C(=C/C=C2\CCC[C@]3(C)[C@@H]([C@H](C)/C=C/[C@@H](O)C4CC4)CC[C@@H]23)C[C@@H](O)C[C@@H]1O` is -11.5%; for `CCCN(CCC)S(=O)(=O)c1ccc(C(=O)O)cc1` it is 4.32%.
